The other results are listed elsewhere or left out.

For the test, the target named is T1, OsSMF1 (Oryza sativa, UniProt Q6ZLB0 1-436).
T1 sequence: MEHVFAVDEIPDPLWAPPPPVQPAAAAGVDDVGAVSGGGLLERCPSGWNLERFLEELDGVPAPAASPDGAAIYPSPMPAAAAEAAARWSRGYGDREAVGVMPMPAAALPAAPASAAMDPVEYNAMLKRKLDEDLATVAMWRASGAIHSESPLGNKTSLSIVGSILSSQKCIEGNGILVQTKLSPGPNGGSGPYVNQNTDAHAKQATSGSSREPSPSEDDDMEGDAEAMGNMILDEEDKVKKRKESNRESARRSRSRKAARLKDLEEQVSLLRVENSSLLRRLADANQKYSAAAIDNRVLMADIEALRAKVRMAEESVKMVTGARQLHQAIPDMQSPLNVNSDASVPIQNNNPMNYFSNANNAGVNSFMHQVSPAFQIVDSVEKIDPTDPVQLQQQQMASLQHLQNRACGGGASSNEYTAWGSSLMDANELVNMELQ
In words: protein-binding microarray (RPBM); PBS, 2% BSA, 51.3 ng/ul salmon testes DNA, 50 uM zinc acetate, 200 nM TF, 25 C, 1 h; high values mean tight binding. As to conditions: protein: recombinant; tags: N-terminal polyhistidine and DsRed monomer fusion (pET32a); chain copies: 2; label: CyDye5-dUTP incorporated in the synthesized complementary strand; 3' TTTTT single-stranded linker to array surface; dsDNA, one strand shown. The essentials: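 A custom Agilent array was converted to double-stranded form by primer extension with Cy5-dUTP and blocked with 2% BSA. Protein at 200 nM in PBS with 2% BSA, salmon testes DNA and 50 µM zinc acetate was applied for 1 h at 25 °C, followed by washing. The proteins were polyhistidine–DsRed N-terminal fusions of transcription factors, expressed in E. coli BL21-CodonPlus and Ni–NTA-purified. The binding signal is per-feature fluorescence intensity (arbitrary units) from an Axon 4000B scanner.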
For the sequence “TATCAAAACTTCATTAATTTATTACGCATGTGTAGGTAGACGGAGTCACCTAGTGCAG”, the binding signal was 31800 fluorescence intensity (a.u.).
In the case of “ATTCCTTTTCTGCCGGGAGCCCTGGGCTACGGTACAAGAGCGGAGTCACCTAGTGCAG” it was 23800 fluorescence intensity (a.u.); in that of “AGATATATAGATTTTATTTATGACGTACTACTTGTACGTTCGGAGTCACCTAGTGCAG”, 5130 fluorescence intensity (a.u.); in that of “AAAGTCAGAGCTGCAAAAGCGATGGGATCGAGAGCCTCGACGGAGTCACCTAGTGCAG”, 3920 fluorescence intensity (a.u.).
In the case of “TCCCGTTTCCCTTTCTATATTACGTGGAGTAGCCGGGTGGCGGAGTCACCTAGTGCAG” it was 4620 fluorescence intensity (a.u.); in that of “AAACGATGACTGTTAAATAGGGATTAAAAGGAAAGGATGGCGGAGTCACCTAGTGCAG”, 41200 fluorescence intensity (a.u.); in that of “TGAGTGGGAATGCCATGACCGTATTACGTAGGCCCGGTGACGGAGTCACCTAGTGCAG”, 3460 fluorescence intensity (a.u.).
Under “TGCTGTAGCAAGGAGGCACGTGACGCAAGCATCAACGTCACGGAGTCACCTAGTGCAG” stands 5480 fluorescence intensity (a.u.); under “TCCTCCACATCATCATTTGAGTCTATATGGCATCTTGGAACGGAGTCACCTAGTGCAG”, 9760 fluorescence intensity (a.u.); under “CCTCTGTGAATCACTGCTCAAACATACCCCTAGGACCTGTCGGAGTCACCTAGTGCAG”, 3630 fluorescence intensity (a.u.).
Regarding “CTGAACACACCATCGTCATTCACAGGTATGGTAAAAGGGCCGGAGTCACCTAGTGCAG”, the binding signal is 5100 fluorescence intensity (a.u.).
Under “TAATATTCAATAACTCCTATGGTGACGTCAAGCATCAATACGGAGTCACCTAGTGCAG” stands 10000 fluorescence intensity (a.u.); under “GATGCAAAGAGAGCTACTAGCTGAGTTGGATGGAATTAACCGGAGTCACCTAGTGCAG”, 5550 fluorescence intensity (a.u.).
“CTCGGTGGGTGCAGGGTCCCAACGGGGCCGAGGGAAGGTGCGGAGTCACCTAGTGCAG”: the binding signal was 3260 fluorescence intensity (a.u.).
With “GCTCGAGCCCACATGTCAGCGTCCGCGTGGCCCGGCTTCCCGGAGTCACCTAGTGCAG”, the binding signal was 3260 fluorescence intensity (a.u.).
In the case of “ACTCCACGAGTCATCGAGTCGTGAGGAGTGACAACACGTTCGGAGTCACCTAGTGCAG” it was 4740 fluorescence intensity (a.u.); in that of “CAATGTTTAGCCTATGACAATGTGGATGCACTACTTAATACGGAGTCACCTAGTGCAG”, 3160 fluorescence intensity (a.u.); in that of “AGAGGGACGTCGACGCGTGGTGCCGTGGTGGTGTCGCTCGCGGAGTCACCTAGTGCAG”, 3400 fluorescence intensity (a.u.).
In the case of “TAATAACAACCTAGTACAGAAATCAAACTTGGTTTTGCTGCGGAGTCACCTAGTGCAG” it was 7980 fluorescence intensity (a.u.); in that of “AAAAGAATCACCATTAAACTAAAACCACATCACCAGTTCACGGAGTCACCTAGTGCAG”, 4660 fluorescence intensity (a.u.).
In the case of “ACCGTTGAAGTCTGAATAACATACATAGCTTGTAATATTGCGGAGTCACCTAGTGCAG” it was 16400 fluorescence intensity (a.u.).
For the sequence “GGGCATTTGCATCATTCAACCACGTGGTCGTTACATTATACGGAGTCACCTAGTGCAG”, the binding signal was 3740 fluorescence intensity (a.u.).
In the case of “CATAAAACCACATCATCTTATTTTATATTTAAATCATCATCGGAGTCACCTAGTGCAG” it was 4300 fluorescence intensity (a.u.); in that of “TCACCCATTAACGACATGGGCTCTCCACGTTCAGCCATGGCGGAGTCACCTAGTGCAG”, 3300 fluorescence intensity (a.u.); in that of “TTTCCTTTTGTTGACTAGGATGTCATGTTAGTGAAACCAACGGAGTCACCTAGTGCAG”, 14600 fluorescence intensity (a.u.).
In the case of “AAAACGTAATCCCTTCGTCCCTTAATATAAGAGATTTTGACGGAGTCACCTAGTGCAG” it was 25600 fluorescence intensity (a.u.).
Under “AAGTGCCTACCAAGCCAGCATCGTGTCATAGCCGGAGCATCGGAGTCACCTAGTGCAG” stands 3730 fluorescence intensity (a.u.); under “GTCGAGCAATCCTTCATCAAAACACCATCACCAACGAGTCCGGAGTCACCTAGTGCAG”, 3780 fluorescence intensity (a.u.).
Take “AGTAGCGAGATCCAACGGCTCAGGACATCGCCACGTGGCGCGGAGTCACCTAGTGCAG”: the binding signal was 27700 fluorescence intensity (a.u.).
In the case of “AGTGATGCGGGACCCGATGATGAGTGAGGCTGACATGTGGCGGAGTCACCTAGTGCAG” it was 4920 fluorescence intensity (a.u.); in that of “GGACGAGTGCGGCGGCGACAACCATGGCGGATGAGGGCGGCGGAGTCACCTAGTGCAG”, 4250 fluorescence intensity (a.u.); in that of “ACACCACGTATGGTAGTGGCACGCACGTGGCTGACCCGGACGGAGTCACCTAGTGCAG”, 7140 fluorescence intensity (a.u.).
In the case of “AGCCTGTTGTGTTCCTCCATGGCGGCCCTGGAGCTGGCACCGGAGTCACCTAGTGCAG” it was 3260 fluorescence intensity (a.u.); in that of “ACAGCAAAGCTGCACTTTCAGGGGCTATCGCAAGATCAATCGGAGTCACCTAGTGCAG”, 4440 fluorescence intensity (a.u.).
In the case of “GGCGCCAGCGCCACGCGTCGACTCCTCATTGGCTCCCACCCGGAGTCACCTAGTGCAG” it was 8630 fluorescence intensity (a.u.).
Take “ACCAAGCTCTTCCCGTGCACGTGTGGTAGGCAGAACGTGCCGGAGTCACCTAGTGCAG”: the binding signal was 3540 fluorescence intensity (a.u.).
In the case of “GATGACACGTGCCTTGTGATGTCAACGCTATGTGCCGCCTCGGAGTCACCTAGTGCAG” it was 10300 fluorescence intensity (a.u.).
With “TCAAACCAGGGACTTTGCGTGGAGGAGAGGGGCGGCGGGGCGGAGTCACCTAGTGCAG”, the binding signal is 5960 fluorescence intensity (a.u.).
Under “GCTGGCCAGCCGCGGCCACGCCGTCACCTTCGTCTCCACGCGGAGTCACCTAGTGCAG” stands 3530 fluorescence intensity (a.u.); under “CCTGTGCGCCGCCGTGTCCTGTTGTTGGAGAGCTGTCGCCCGGAGTCACCTAGTGCAG”, 4420 fluorescence intensity (a.u.).
In the case of “CTGCTTAATTACTTCAGCCTTTACACATCAGCATATCATACGGAGTCACCTAGTGCAG” it was 10500 fluorescence intensity (a.u.); in that of “GTAGCTCTGTAAACCCCGCGTGTCGGTGTCGGTGGGCGGGCGGAGTCACCTAGTGCAG”, 3290 fluorescence intensity (a.u.).

(Values after PMC7819943, “Rice protein-binding microarrays: a tool to detect cis-acting elements near promoter regions in rice”.)
